The supplement of paper PMC12823440, “Inhibitors supercharge kinase turnover through native proteolytic circuits” (Nature, 2025)
Structures can show the parent of a compound that is named as a salt. The list shows a part of the results. Hit calls seldom repeat between salt and free forms of one compound.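 Kinases were expressed as nanoluciferase fusions in K562 cells and luminescence was read every 4 h between 2 and 18 h as percent of control, DMSO set to 100% and a positive control to 0%. A time point counts as decreased when the signal drops significantly (2 sigma). The hit call is the authors' own, does not follow from the count of time points alone, and its rule is not shown.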

Sequences of proteins named here, by UniProt entry; tags and fusion partners are left off. A change or cut given only in a name is not applied to a line headed by its entry.
UniProt Q9Y616: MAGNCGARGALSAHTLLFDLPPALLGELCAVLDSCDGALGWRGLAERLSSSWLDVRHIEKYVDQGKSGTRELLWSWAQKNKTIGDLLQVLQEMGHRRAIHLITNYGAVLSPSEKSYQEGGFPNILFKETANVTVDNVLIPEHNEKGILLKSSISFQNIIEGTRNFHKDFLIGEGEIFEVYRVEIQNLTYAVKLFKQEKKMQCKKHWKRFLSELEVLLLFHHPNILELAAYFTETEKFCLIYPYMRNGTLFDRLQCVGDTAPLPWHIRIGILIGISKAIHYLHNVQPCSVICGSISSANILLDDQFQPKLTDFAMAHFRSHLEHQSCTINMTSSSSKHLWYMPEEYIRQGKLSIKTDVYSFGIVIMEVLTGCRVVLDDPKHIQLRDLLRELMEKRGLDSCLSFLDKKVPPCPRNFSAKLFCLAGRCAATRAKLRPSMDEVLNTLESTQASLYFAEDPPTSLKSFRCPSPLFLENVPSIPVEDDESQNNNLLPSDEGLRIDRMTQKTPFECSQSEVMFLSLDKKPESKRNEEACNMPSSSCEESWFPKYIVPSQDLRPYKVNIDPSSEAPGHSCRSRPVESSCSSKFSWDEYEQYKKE
UniProt P23458: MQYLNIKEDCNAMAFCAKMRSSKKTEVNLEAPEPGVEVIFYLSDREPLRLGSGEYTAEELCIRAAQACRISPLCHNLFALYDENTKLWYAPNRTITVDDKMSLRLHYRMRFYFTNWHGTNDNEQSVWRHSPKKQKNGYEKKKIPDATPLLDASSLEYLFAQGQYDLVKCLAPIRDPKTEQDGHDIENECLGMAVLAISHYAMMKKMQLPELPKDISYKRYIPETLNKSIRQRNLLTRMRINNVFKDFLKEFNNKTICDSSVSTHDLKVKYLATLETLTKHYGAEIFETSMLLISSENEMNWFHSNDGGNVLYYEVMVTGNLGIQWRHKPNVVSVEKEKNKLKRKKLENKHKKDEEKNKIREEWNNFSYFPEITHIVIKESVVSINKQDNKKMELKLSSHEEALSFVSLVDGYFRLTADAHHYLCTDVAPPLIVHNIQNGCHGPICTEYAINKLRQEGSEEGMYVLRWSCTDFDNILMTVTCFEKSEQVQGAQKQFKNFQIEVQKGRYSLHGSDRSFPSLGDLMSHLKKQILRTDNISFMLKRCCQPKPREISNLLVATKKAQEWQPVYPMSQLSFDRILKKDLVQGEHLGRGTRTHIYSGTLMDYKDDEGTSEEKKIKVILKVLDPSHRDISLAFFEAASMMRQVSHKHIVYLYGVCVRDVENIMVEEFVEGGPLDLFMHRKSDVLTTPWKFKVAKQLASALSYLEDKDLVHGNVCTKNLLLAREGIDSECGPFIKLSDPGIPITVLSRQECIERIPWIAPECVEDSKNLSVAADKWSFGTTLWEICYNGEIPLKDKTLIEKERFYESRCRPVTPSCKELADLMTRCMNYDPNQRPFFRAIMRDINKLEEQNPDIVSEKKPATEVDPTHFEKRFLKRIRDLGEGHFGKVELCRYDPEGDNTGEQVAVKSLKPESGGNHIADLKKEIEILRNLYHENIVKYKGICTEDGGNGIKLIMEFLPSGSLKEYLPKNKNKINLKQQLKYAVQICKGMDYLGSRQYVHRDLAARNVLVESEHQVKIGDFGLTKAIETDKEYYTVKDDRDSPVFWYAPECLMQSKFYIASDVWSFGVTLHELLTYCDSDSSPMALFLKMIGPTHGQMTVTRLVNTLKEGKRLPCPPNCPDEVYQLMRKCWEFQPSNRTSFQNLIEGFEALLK
UniProt Q12851: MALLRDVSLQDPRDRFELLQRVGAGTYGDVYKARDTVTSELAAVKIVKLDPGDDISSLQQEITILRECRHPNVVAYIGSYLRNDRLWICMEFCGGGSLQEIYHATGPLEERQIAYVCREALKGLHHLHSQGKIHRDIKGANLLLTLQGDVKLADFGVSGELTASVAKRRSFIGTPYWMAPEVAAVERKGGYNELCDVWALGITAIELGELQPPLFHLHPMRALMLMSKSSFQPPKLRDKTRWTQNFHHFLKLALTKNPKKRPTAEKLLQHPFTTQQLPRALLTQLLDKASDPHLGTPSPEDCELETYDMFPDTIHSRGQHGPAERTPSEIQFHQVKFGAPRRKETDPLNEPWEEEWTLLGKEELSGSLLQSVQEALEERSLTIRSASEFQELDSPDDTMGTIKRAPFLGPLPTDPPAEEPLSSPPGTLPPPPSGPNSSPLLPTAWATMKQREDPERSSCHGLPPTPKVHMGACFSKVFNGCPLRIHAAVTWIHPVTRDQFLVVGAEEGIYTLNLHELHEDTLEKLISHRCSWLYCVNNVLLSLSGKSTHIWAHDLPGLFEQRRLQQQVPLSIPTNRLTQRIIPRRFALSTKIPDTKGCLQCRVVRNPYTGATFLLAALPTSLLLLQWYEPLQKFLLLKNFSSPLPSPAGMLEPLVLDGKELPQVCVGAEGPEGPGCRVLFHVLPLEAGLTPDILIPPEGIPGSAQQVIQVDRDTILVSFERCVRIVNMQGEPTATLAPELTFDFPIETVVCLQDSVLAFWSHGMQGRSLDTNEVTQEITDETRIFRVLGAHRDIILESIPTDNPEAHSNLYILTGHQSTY
UniProt P31152, whole entry: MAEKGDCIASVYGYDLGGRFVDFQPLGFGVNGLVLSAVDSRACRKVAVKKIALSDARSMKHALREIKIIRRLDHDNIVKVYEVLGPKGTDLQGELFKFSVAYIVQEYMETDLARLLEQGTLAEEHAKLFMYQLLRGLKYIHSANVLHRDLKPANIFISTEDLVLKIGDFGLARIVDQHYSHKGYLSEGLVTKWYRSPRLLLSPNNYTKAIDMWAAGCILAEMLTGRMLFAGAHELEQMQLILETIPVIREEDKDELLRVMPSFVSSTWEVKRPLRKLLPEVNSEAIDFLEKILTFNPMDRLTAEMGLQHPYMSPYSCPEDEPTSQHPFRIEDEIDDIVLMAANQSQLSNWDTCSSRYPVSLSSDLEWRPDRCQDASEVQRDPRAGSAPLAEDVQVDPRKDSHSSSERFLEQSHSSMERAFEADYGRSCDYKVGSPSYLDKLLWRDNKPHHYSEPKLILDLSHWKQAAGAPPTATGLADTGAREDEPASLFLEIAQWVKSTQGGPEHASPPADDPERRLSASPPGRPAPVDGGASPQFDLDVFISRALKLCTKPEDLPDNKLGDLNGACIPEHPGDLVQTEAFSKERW
UniProt Q9BUB5: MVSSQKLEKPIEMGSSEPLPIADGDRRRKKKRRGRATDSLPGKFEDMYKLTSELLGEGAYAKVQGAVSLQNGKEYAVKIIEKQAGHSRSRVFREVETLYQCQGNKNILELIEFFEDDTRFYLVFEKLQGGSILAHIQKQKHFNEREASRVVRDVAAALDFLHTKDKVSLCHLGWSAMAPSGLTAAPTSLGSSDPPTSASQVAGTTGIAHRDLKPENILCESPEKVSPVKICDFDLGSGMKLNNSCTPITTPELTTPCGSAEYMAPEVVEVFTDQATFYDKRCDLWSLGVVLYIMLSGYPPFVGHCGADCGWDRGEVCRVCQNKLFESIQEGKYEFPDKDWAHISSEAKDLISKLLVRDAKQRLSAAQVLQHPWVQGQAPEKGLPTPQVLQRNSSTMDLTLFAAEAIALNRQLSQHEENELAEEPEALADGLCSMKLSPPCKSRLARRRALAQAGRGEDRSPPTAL
UniProt Q16288, whole entry, looked up: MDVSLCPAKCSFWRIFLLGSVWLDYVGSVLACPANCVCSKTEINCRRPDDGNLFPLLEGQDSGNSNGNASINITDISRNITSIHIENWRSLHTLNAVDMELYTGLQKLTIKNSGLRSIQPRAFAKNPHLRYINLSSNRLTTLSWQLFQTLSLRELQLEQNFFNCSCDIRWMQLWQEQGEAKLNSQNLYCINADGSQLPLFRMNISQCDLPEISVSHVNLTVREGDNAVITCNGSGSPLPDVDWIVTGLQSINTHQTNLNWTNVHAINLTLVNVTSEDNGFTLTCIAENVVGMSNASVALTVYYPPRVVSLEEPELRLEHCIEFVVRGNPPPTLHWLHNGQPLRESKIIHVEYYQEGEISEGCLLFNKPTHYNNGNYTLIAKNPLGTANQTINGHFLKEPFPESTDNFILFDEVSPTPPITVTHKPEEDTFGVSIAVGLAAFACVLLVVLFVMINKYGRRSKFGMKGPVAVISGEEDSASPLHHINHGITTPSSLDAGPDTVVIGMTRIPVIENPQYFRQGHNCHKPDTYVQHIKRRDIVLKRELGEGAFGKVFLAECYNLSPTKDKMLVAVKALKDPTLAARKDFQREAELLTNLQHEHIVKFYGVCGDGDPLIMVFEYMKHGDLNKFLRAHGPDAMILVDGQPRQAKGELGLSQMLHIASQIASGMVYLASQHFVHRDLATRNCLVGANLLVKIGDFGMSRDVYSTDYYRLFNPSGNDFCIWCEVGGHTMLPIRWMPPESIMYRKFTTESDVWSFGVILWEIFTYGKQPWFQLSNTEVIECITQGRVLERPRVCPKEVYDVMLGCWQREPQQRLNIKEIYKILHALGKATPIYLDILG
UniProt Q96KB5: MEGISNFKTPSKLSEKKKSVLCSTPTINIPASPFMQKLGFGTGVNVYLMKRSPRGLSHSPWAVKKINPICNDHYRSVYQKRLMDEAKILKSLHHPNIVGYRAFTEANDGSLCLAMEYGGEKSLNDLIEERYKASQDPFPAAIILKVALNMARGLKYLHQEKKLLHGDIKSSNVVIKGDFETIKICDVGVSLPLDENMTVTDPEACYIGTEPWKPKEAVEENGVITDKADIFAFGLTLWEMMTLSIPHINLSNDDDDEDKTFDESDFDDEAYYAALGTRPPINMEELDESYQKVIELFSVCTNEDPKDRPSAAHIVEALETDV
UniProt P09619, whole entry: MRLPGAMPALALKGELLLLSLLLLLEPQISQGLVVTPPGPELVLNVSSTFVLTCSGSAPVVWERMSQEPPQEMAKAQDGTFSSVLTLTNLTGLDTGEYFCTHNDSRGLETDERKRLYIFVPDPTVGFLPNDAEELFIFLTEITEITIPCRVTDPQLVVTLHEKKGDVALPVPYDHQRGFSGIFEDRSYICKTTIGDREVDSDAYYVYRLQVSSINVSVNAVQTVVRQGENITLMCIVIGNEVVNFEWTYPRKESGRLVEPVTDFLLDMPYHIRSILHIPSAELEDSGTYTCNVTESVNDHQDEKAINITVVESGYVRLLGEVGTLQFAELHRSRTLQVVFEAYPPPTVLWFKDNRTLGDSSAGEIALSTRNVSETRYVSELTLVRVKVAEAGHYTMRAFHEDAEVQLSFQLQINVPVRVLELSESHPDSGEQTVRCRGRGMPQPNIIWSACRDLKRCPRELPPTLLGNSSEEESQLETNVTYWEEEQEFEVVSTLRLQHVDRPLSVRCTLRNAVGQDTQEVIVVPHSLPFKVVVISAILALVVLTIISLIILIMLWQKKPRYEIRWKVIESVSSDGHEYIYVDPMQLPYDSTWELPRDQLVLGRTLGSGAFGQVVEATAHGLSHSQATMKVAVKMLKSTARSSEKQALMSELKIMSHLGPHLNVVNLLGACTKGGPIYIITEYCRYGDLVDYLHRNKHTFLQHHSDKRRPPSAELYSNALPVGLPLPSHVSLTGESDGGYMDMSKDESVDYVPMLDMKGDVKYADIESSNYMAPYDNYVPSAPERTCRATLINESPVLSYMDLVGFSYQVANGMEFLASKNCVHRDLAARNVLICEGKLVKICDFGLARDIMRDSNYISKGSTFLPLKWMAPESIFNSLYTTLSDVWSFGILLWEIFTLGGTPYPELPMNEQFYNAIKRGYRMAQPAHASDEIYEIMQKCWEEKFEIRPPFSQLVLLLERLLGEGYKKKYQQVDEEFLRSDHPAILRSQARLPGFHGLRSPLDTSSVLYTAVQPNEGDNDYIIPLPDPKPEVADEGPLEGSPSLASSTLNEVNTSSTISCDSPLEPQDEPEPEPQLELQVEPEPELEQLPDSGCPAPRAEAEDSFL
UniProt P06239: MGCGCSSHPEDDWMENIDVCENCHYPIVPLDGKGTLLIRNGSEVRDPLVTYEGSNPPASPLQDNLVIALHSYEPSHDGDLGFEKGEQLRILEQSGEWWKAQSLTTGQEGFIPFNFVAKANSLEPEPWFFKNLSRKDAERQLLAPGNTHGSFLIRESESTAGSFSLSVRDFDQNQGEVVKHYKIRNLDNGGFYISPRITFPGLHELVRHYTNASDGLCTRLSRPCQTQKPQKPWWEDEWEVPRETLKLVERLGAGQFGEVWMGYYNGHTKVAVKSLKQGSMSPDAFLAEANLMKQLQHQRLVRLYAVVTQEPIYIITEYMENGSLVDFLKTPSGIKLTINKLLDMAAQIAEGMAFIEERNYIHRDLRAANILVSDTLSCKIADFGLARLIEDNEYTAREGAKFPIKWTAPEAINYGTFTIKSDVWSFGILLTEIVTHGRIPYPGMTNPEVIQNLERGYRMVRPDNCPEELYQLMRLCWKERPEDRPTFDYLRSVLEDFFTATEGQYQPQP

Key:
Assay in all cases: kinase-Nluc reporter destabilization hit call (1 = scored as downregulated) (binary); higher = compound decreases kinase abundance
Details in all cases: K562; 2-18 h
IRAK3 = IRAK3 (UniProt Q9Y616)
JAK1 = JAK1 (UniProt P23458)
LIMK1 = LIMK1 (UniProt P53667)
LIMK2 = LIMK2 (UniProt P53671)
LMTK2 = LMTK2 (UniProt Q8IWU2)
LYN = LYN (UniProt P07948)
MAP2K1 = MAP2K1 (UniProt Q02750)
MAP2K2 = MAP2K2 (UniProt P36507)
MAP4K2 = MAP4K2 (UniProt Q12851)
MAPK1 = MAPK1 (UniProt P28482)
MAPK4 = MAPK4 (UniProt P31152)
MAPKAPK2 = MAPKAPK2 (UniProt P49137)
MKNK1 = MKNK1 (UniProt Q9BUB5)
NTRK2 = NTRK2 (UniProt Q16620)
NTRK3 = NTRK3 (UniProt Q16288)
PAK4 = PAK4 (UniProt O96013)
PBK = PBK (UniProt Q96KB5)
PDGFRB = PDGFRB (UniProt P09619)
PDK1 = PDK1 (UniProt Q15118)
LCK = LCK (UniProt P06239)

Measured: kinase-Nluc reporter destabilization hit call

Cc1cncc2cccc(S(=O)(=O)N3CCCNC[C@@H]3C)c12 [H-1152 (dihydrochloride)] (10 µM)
inactive: IRAK3 = 0 | JAK1 = 0 | LIMK1 = 0 | LIMK2 = 0 | LMTK2 = 0 | LYN 0 | MAP2K1 = 0 | MAP2K2 = 0 | MAP4K2 = 0 | MAPK1 = 0 | MAPK4 = 0 | MAPKAPK2 = 0 | MKNK1 = 0 | NTRK2 = 0 | NTRK3 = 0 | PAK4 = 0 | PBK 0 | PDGFRB 0 | PDK1 = 0

O=C(COc1ccc(Cl)cc1)NC1CCC(NC(=O)COc2ccc(Cl)cc2)CC1 (stereo not drawn) [ISRIB (trans-isomer)] (10 µM)
inactive: IRAK3 = 0 | JAK1 = 0 | LCK 0 | LIMK1 = 0 | LIMK2 = 0 | LMTK2 = 0 | LYN 0 | MAP2K1 = 0 | MAP2K2 = 0 | MAP4K2 = 0 | MAPK1 = 0 | MAPK4 = 0 | MAPKAPK2 = 0 | MKNK1 = 0 | NTRK3 = 0 | PAK4 = 0 | PBK 0 | PDGFRB 0 | PDK1 = 0

Cc1ncsc1-c1ccc(CNC(=O)[C@@H]2C[C@@H](O)CN2C(=O)[C@@H](NC(=O)COCCOc2ccc(-c3cc(Nc4ccc(OC(F)(F)F)cc4)ncn3)cc2)C(C)(C)C)cc1 (2.5 µM)
inactive: IRAK3 = 0 | JAK1 = 0 | LCK 0 | LIMK1 = 0 | LIMK2 = 0 | LMTK2 = 0 | LYN 0 | MAP2K1 = 0 | MAP2K2 = 0 | MAP4K2 = 0 | MAPK1 = 0 | MAPK4 = 0 | MAPKAPK2 = 0 | MKNK1 = 0 | NTRK3 = 0 | PAK4 = 0 | PBK 0 | PDGFRB 0 | PDK1 = 0

Cn1cnc2c(F)c(Nc3ccc(Br)cc3F)c(C(=O)NOCCO)cc21 [Binimetinib] (10 µM)
inactive: IRAK3 = 0 | JAK1 = 0 | LCK 0 | LIMK1 = 0 | LIMK2 = 0 | LMTK2 = 0 | LYN 0 | MAP2K1 = 0 | MAP2K2 = 0 | MAP4K2 = 0 | MAPK1 = 0 | MAPK4 = 0 | MAPKAPK2 = 0 | MKNK1 = 0 | NTRK3 = 0 | PAK4 = 0 | PBK 0 | PDGFRB 0 | PDK1 = 0

O=C(Nc1ccc(Cl)cc1)C1CN(C(=O)c2cccc(-c3ccco3)c2)CC(F)(F)C1 (stereo not drawn) (2.5 µM)
inactive: IRAK3 = 0 | JAK1 = 0 | LCK 0 | LIMK1 = 0 | LIMK2 = 0 | LMTK2 = 0 | LYN 0 | MAP2K1 = 0 | MAP2K2 = 0 | MAP4K2 = 0 | MAPK1 = 0 | MAPK4 = 0 | MAPKAPK2 = 0 | MKNK1 = 0 | NTRK3 = 0 | PAK4 = 0 | PBK 0 | PDGFRB 0 | PDK1 = 0

Looked up by structure from the list above, 2 records:
Cn1cnc2c(F)c(Nc3ccc(Br)cc3F)c(C(=O)NOCCO)cc21 [Binimetinib] (10 µM)
inactive: IRAK3 = 0 | JAK1 = 0 | LCK 0 | LIMK1 = 0 | LIMK2 = 0 | LMTK2 = 0 | LYN 0 | MAP2K1 = 0 | MAP2K2 = 0 | MAP4K2 = 0 | MAPK1 = 0 | MAPK4 = 0 | MAPKAPK2 = 0 | MKNK1 = 0 | NTRK3 = 0 | PAK4 = 0 | PBK 0 | PDGFRB 0 | PDK1 = 0

Cc1ncsc1-c1ccc(CNC(=O)[C@@H]2C[C@@H](O)CN2C(=O)[C@@H](NC(=O)COCCOc2ccc(-c3cc(Nc4ccc(OC(F)(F)F)cc4)ncn3)cc2)C(C)(C)C)cc1 (2.5 µM)
inactive: IRAK3 = 0 | JAK1 = 0 | LCK 0 | LIMK1 = 0 | LIMK2 = 0 | LMTK2 = 0 | LYN 0 | MAP2K1 = 0 | MAP2K2 = 0 | MAP4K2 = 0 | MAPK1 = 0 | MAPK4 = 0 | MAPKAPK2 = 0 | MKNK1 = 0 | NTRK3 = 0 | PAK4 = 0 | PBK 0 | PDGFRB 0 | PDK1 = 0

The results go on.

Cc1cc(N2CCOCC2)ccc1Nc1nc(NC2CCCCC2)c2[nH]cnc2n1 (10 µM)
inactive: IRAK3 = 0 | JAK1 = 0 | LCK 0 | LIMK1 = 0 | LIMK2 = 0 | LMTK2 = 0 | LYN 0 | MAP2K1 = 0 | MAP2K2 = 0 | MAP4K2 = 0 | MAPK1 = 0 | MAPK4 = 0 | MAPKAPK2 = 0 | MKNK1 = 0 | NTRK3 = 0 | PAK4 = 0 | PBK 0 | PDGFRB 0 | PDK1 = 0

CCC(F)(F)c1cc(N2CCC(S(C)(=O)=O)CC2)nc2sc(C(N)=O)c(N)c12 (10 µM)
inactive: IRAK3 = 0 | JAK1 = 0 | LCK 0 | LIMK1 = 0 | LIMK2 = 0 | LMTK2 = 0 | LYN 0 | MAP2K1 = 0 | MAP2K2 = 0 | MAP4K2 = 0 | MAPK1 = 0 | MAPK4 = 0 | MAPKAPK2 = 0 | MKNK1 = 0 | NTRK3 = 0 | PAK4 = 0 | PBK 0 | PDGFRB 0 | PDK1 = 0

CC(C)(Oc1ccc(Cl)cc1)C(=O)Nc1ccc(OCc2ccc(C#N)cc2)cc1 [AMPK activator 4] (10 µM)
inactive: IRAK3 = 0 | JAK1 = 0 | LCK 0 | LIMK1 = 0 | LIMK2 = 0 | LMTK2 = 0 | LYN 0 | MAP2K1 = 0 | MAP2K2 = 0 | MAP4K2 = 0 | MAPK1 = 0 | MAPK4 = 0 | MAPKAPK2 = 0 | MKNK1 = 0 | NTRK3 = 0 | PAK4 = 0 | PBK 0 | PDGFRB 0 | PDK1 = 0

CN1C(=O)N[C@@H](Cc2c[nH]c3c(Cl)cccc23)C1=O [Necrostatin 2 (S enantiomer)] (10 µM)
inactive: IRAK3 = 0 | JAK1 = 0 | LCK 0 | LIMK1 = 0 | LIMK2 = 0 | LMTK2 = 0 | LYN 0 | MAP2K1 = 0 | MAP2K2 = 0 | MAP4K2 = 0 | MAPK1 = 0 | MAPK4 = 0 | MAPKAPK2 = 0 | MKNK1 = 0 | NTRK3 = 0 | PAK4 = 0 | PBK 0 | PDGFRB 0 | PDK1 = 0

Nc1[nH]nc2nnc(-c3c(-c4ccccc4)nn4ccccc34)cc12 (10 µM)
inactive: IRAK3 = 0 | JAK1 = 0 | LCK 0 | LIMK1 = 0 | LIMK2 = 0 | LMTK2 = 0 | LYN 0 | MAP2K1 = 0 | MAP2K2 = 0 | MAP4K2 = 0 | MAPK4 = 0 | MAPKAPK2 = 0 | MKNK1 = 0 | NTRK2 = 0 | NTRK3 = 0 | PAK4 = 0 | PBK 0 | PDGFRB 0 | PDK1 = 0

COc1ccc(CCNCc2ccc(OCc3ccc(Cl)nc3)c(OC)c2)cc1OC [SBE13 (Hydrochloride)] (10 µM)
inactive: IRAK3 = 0 | JAK1 = 0 | LCK 0 | LIMK1 = 0 | LIMK2 = 0 | LMTK2 = 0 | LYN 0 | MAP2K1 = 0 | MAP2K2 = 0 | MAP4K2 = 0 | MAPK1 = 0 | MAPK4 = 0 | MAPKAPK2 = 0 | MKNK1 = 0 | NTRK3 = 0 | PAK4 = 0 | PBK 0 | PDGFRB 0 | PDK1 = 0

COc1ccc2cc1Oc1ccc(cc1)C[C@H]1c3cc(c(OC)cc3CCN1C)Oc1c(O)c(OC)cc3c1[C@H](C2)N(C)CC3 [Fangchinoline] (2.5 µM)
inactive: IRAK3 = 0 | JAK1 = 0 | LCK 0 | LIMK2 = 0 | LMTK2 = 0 | LYN 0 | MAP2K1 = 0 | MAP2K2 = 0 | MAP4K2 = 0 | MAPK1 = 0 | MAPK4 = 0 | MAPKAPK2 = 0 | MKNK1 = 0 | NTRK2 = 0 | NTRK3 = 0 | PAK4 = 0 | PBK 0 | PDGFRB 0 | PDK1 = 0

COc1cc2nc(-c3cc(F)ccc3O)nc(N[C@@H]3CNC[C@H]3C(C)(C)O)c2cc1OC (2.5 µM)
inactive: IRAK3 = 0 | JAK1 = 0 | LCK 0 | LIMK1 = 0 | LIMK2 = 0 | LMTK2 = 0 | LYN 0 | MAP2K1 = 0 | MAP2K2 = 0 | MAP4K2 = 0 | MAPK1 = 0 | MAPK4 = 0 | MAPKAPK2 = 0 | MKNK1 = 0 | NTRK3 = 0 | PAK4 = 0 | PBK 0 | PDGFRB 0 | PDK1 = 0

Nc1ccc(O)c(C(=O)O)c1 [5-Aminosalicylic Acid] (10 µM)
inactive: IRAK3 = 0 | JAK1 = 0 | LCK 0 | LIMK1 = 0 | LIMK2 = 0 | LMTK2 = 0 | LYN 0 | MAP2K1 = 0 | MAP2K2 = 0 | MAP4K2 = 0 | MAPK1 = 0 | MAPK4 = 0 | MAPKAPK2 = 0 | MKNK1 = 0 | NTRK3 = 0 | PAK4 = 0 | PBK 0 | PDGFRB 0 | PDK1 = 0

O=C1C=CC2=C3c4cc(O)c(O)cc4CC3(O)COC2=C1O (stereo not drawn) [Hematein] (10 µM)
inactive: IRAK3 = 0 | JAK1 = 0 | LCK 0 | LIMK1 = 0 | LIMK2 = 0 | LMTK2 = 0 | LYN 0 | MAP2K1 = 0 | MAP2K2 = 0 | MAP4K2 = 0 | MAPK1 = 0 | MAPK4 = 0 | MAPKAPK2 = 0 | MKNK1 = 0 | NTRK3 = 0 | PAK4 = 0 | PBK 0 | PDGFRB 0 | PDK1 = 0

Cc1cnc(Nc2ccc(F)cc2Cl)nc1-c1c[nH]c(C(=O)N[C@H](CO)c2cccc(Cl)c2)c1 (10 µM)
inactive: IRAK3 = 0 | JAK1 = 0 | LCK 0 | LIMK1 = 0 | LIMK2 = 0 | LMTK2 = 0 | LYN 0 | MAP2K1 = 0 | MAP2K2 = 0 | MAP4K2 = 0 | MAPK4 = 0 | MAPKAPK2 = 0 | MKNK1 = 0 | NTRK2 = 0 | NTRK3 = 0 | PAK4 = 0 | PBK 0 | PDGFRB 0 | PDK1 = 0

N#CC(=C(/N)Sc1ccccc1N)/C(C#N)=C(\N)Sc1ccccc1N (10 µM)
inactive: IRAK3 = 0 | JAK1 = 0 | LCK 0 | LIMK1 = 0 | LIMK2 = 0 | LMTK2 = 0 | LYN 0 | MAP2K1 = 0 | MAP2K2 = 0 | MAP4K2 = 0 | MAPK1 = 0 | MAPK4 = 0 | MAPKAPK2 = 0 | MKNK1 = 0 | NTRK3 = 0 | PAK4 = 0 | PBK 0 | PDGFRB 0 | PDK1 = 0
